According to patent publication US6645972B2, “Methods of treating leukemia” (Shire BioChem Inc., priority 2001, dated 2003):
Structures can show the parent of a compound that is named as a salt.

Tests used:
[1] = system: KBM5-STI^R1.0 cells; settings: KBM5-STI^R1.0 vs KBM5
[2] = system: KBM7-STI^R1.0 cells; settings: KBM7-STI^R1.0 vs KBM7

IC50 relative to the value in the corresponding cell line [1]: about twenty
IC50 relative to the value in the corresponding cell line [2]: about twenty
Compound: Cc1ccc(NC(=O)c2ccc(CN3CCN(C)CC3)cc2)cc1Nc1nccc(-c2cccnc2)n1 [STI-571, imatinib mesylate]
